These are yes or no findings as the source states them, for the method shown. Binding seen in cells or lysates may run through a third protein. Some entries that bind do so weakly or less than the wild type. Where a sequence is shown, tags or fusion partners need not be part of it.
T1: C-terminal protein A (pA)-tagged Rad3 (Saccharomyces cerevisiae) (UniProt P06839)
T1 sequence: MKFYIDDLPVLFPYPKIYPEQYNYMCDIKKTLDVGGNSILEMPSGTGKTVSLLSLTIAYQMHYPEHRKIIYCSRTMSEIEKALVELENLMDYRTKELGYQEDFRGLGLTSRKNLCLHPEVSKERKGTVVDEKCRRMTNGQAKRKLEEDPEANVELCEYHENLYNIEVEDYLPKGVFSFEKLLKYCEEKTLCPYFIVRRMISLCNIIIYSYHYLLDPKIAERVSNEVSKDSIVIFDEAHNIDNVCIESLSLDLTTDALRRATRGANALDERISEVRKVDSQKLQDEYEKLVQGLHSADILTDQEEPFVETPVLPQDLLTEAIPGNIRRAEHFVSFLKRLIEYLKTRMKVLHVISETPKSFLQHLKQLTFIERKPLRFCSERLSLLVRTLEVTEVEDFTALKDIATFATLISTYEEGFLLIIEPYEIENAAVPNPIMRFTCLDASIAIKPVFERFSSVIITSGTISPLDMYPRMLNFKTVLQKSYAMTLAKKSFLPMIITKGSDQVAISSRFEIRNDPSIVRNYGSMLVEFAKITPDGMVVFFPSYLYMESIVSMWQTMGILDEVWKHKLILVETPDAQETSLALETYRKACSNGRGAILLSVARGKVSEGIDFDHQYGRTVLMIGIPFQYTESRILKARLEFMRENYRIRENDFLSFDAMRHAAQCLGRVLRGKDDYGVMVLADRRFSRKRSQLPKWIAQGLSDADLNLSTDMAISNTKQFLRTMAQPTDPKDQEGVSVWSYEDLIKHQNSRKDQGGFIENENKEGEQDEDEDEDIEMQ

B1: Tfb2 YL399–400AA, C-terminal 3× FLAG-tagged (protein, UniProt Q02939 1-513)
chain: MSDYSLKHSVTQYLEEIPQQVQNRLYTSPATCLAIYRILPPLAKFFIMAMVFNENEVPLLDLDKWVNSNGKLQFQNAIKSMKSLHLLIPNKSSGTLMINLNPTFKISLRNALTGGEVQNSFGVVVEENVVSLDLLDEYSANKWETILHFMVGTPLAKIPSEKVLNLLKHSKLMEEVNSTGEFKITNEGFQFLLQEINSQLWTLLLQYLKMIETSKMDLVDVLHFIFMLGALEVGKAYKIDALSETQRIMLQDMRDYGLVFQKHSNDSIFYPTKLALMLTSDTKTIRSASNAMDSVLRQNREEPSVNEDGANGKSTTDITTSDDLNKAGLKNQDIPDGSLIVETNFKIYSYSNSPLQIAVLSLFVHLKARFVNMVLGQITRESIRRALTNGITADQIIAAAETHAHPQMRRLAEEKLEKKLELDPNCKEPLQVLPPTVVDQIRLWQLELDRVITYEGSLYSDFETSQEYNLLSKYAQDIGVLLWKDDKKKKFFISKEGNSQVLDFAKRKLKKKQ
B2: Tfb3 (protein, UniProt Q03290 1-321)
chain: MLMDEYEENKDMCPICKTDRYLSPDVKFLVNPECYHRICESCVDRIFSLGPAQCPYKGCDKILRKNKFKTQIFDDVEVEKEVDIRKRVFNVFNKTIDDFNGDLVEYNKYLEEVEDIIYKLDHGIDVAKTEEKLRTYEELNKQLIMNNLERSRTEIESFEQRQKFEKEMKLKKRLLERQIEEEERMNKEWTKKEIVNRLSTTTQDINETIEGVKNTVKLKKSSARRKLEELNRVLKNNPYFNSNVNVQNSRLKDAVPFTPFNGDREAHPRFTLKGSVYNDPFIKDLEHRKEFIASGFNTNYAYERVLTEAFMGLGCVISEEL
B3: Tfb1 (protein, UniProt P32776 1-642)
chain: MSHSGAAIFEKVSGIIAINEDVSPAELTWRSTDGDKVHTVVLSTIDKLQATPASSEKMMLRLIGKVDESKKRKDNEGNEVVPKPQRHMFSFNNRTVMDNIKMTLQQIISRYKDADIYEEKRRREESAQHTETPMSSSSVTAGTPTPHLDTPQLNNGAPLINTAKLDDSLSKEKLLTNLKLQQSLLKGNKVLMKVFQETVINAGLPPSEFWSTRIPLLRAFALSTSQKVGPYNVLSTIKPVASSENKVNVNLSREKILNIFENYPIVKKAYTDNVPKNFKEPEFWARFFSSKLFRKLRGEKIMQNDRGDVIIDRYLTLDQEFDRKDDDMLLHPVKKIIDLDGNIQDDPVVRGNRPDFTMQPGVDINGNSDGTVDILKGMNRLSEKMIMALKNEYSRTNLQNKSNITNDEEDEDNDERNELKIDDLNESYKTNYAIIHLKRNAHEKTTDNDAKSSADSIKNADLKVSNQQMLQQLSLVMDNLINKLDLNQVVPNNEVSNKINKRVITAIKINAKQAKHNNVNSALGSFVDNTSQANELEVKSTLPIDLLESCRMLHTTCCEFLKHFYIHFQSGEQKQASTVKKLYNHLKDCIEKLNELFQDVLNGDGESMSNTCTAYLKPVLNSITLATHKYDEYFNEYNNNSN
B4: C-terminal 3× FLAG-tagged WT Tfb2 (protein, UniProt Q02939 1-513)
chain: MSDYSLKHSVTQYLEEIPQQVQNRLYTSPATCLAIYRILPPLAKFFIMAMVFNENEVPLLDLDKWVNSNGKLQFQNAIKSMKSLHLLIPNKSSGTLMINLNPTFKISLRNALTGGEVQNSFGVVVEENVVSLDLLDEYSANKWETILHFMVGTPLAKIPSEKVLNLLKHSKLMEEVNSTGEFKITNEGFQFLLQEINSQLWTLLLQYLKMIETSKMDLVDVLHFIFMLGALEVGKAYKIDALSETQRIMLQDMRDYGLVFQKHSNDSIFYPTKLALMLTSDTKTIRSASNAMDSVLRQNREEPSVNEDGANGKSTTDITTSDDLNKAGLKNQDIPDGSLIVETNFKIYSYSNSPLQIAVLSLFVHLKARFVNMVLGQITRESIRRALTNGITADQIIAYLETHAHPQMRRLAEEKLEKKLELDPNCKEPLQVLPPTVVDQIRLWQLELDRVITYEGSLYSDFETSQEYNLLSKYAQDIGVLLWKDDKKKKFFISKEGNSQVLDFAKRKLKKKQ
B5: Tfb2 RF369–370AA, C-terminal 3× FLAG-tagged (protein, UniProt Q02939 1-513)
chain: MSDYSLKHSVTQYLEEIPQQVQNRLYTSPATCLAIYRILPPLAKFFIMAMVFNENEVPLLDLDKWVNSNGKLQFQNAIKSMKSLHLLIPNKSSGTLMINLNPTFKISLRNALTGGEVQNSFGVVVEENVVSLDLLDEYSANKWETILHFMVGTPLAKIPSEKVLNLLKHSKLMEEVNSTGEFKITNEGFQFLLQEINSQLWTLLLQYLKMIETSKMDLVDVLHFIFMLGALEVGKAYKIDALSETQRIMLQDMRDYGLVFQKHSNDSIFYPTKLALMLTSDTKTIRSASNAMDSVLRQNREEPSVNEDGANGKSTTDITTSDDLNKAGLKNQDIPDGSLIVETNFKIYSYSNSPLQIAVLSLFVHLKAAAVNMVLGQITRESIRRALTNGITADQIIAYLETHAHPQMRRLAEEKLEKKLELDPNCKEPLQVLPPTVVDQIRLWQLELDRVITYEGSLYSDFETSQEYNLLSKYAQDIGVLLWKDDKKKKFFISKEGNSQVLDFAKRKLKKKQ
B6: Tfb2 YY348+350AA, C-terminal 3× FLAG-tagged (protein, UniProt Q02939 1-513)
chain: MSDYSLKHSVTQYLEEIPQQVQNRLYTSPATCLAIYRILPPLAKFFIMAMVFNENEVPLLDLDKWVNSNGKLQFQNAIKSMKSLHLLIPNKSSGTLMINLNPTFKISLRNALTGGEVQNSFGVVVEENVVSLDLLDEYSANKWETILHFMVGTPLAKIPSEKVLNLLKHSKLMEEVNSTGEFKITNEGFQFLLQEINSQLWTLLLQYLKMIETSKMDLVDVLHFIFMLGALEVGKAYKIDALSETQRIMLQDMRDYGLVFQKHSNDSIFYPTKLALMLTSDTKTIRSASNAMDSVLRQNREEPSVNEDGANGKSTTDITTSDDLNKAGLKNQDIPDGSLIVETNFKIASASNSPLQIAVLSLFVHLKARFVNMVLGQITRESIRRALTNGITADQIIAYLETHAHPQMRRLAEEKLEKKLELDPNCKEPLQVLPPTVVDQIRLWQLELDRVITYEGSLYSDFETSQEYNLLSKYAQDIGVLLWKDDKKKKFFISKEGNSQVLDFAKRKLKKKQ

The binders below were run against T1, C-terminal protein A (pA)-tagged Rad3 (Saccharomyces cerevisiae) (assay: co-IP; Rad3-pA on IgG-Dynabeads from 4 mg yeast whole-cell extract overnight at 4 °C; TEV elution; Western blot; strains with FLAG-tagged WT or mutant Tfb2 as the sole source of Tfb2, TFB6 or tfb6Δ background).

Question: B1 was tested. Which binding did it give?
Answer: binds

Question: B2 was tested. Which binding did it give?
Answer: binds

Question: B3 was tested. Which binding did it give?
Answer: binds

Question: How did the binding turn out when B4 was run?
Answer: binds

Question: How did the binding turn out when B5 was run?
Answer: binds

Question: With B6 as the binder, how does the binding read?
Answer: binds
